Measured values: patent US20180044415A1
Positions count from the first letter of the chain named. No constants are given. Whether binding was seen depends on the method and setting. Some binding calls cover weakened binding; strength is not graded here.

The chains behind the UniProt entries cited, without tags or fusion partners. Where a name states a change or a piece, a line headed by the entry shows the natural chain unless it says otherwise.
UniProt Q9NYJ7: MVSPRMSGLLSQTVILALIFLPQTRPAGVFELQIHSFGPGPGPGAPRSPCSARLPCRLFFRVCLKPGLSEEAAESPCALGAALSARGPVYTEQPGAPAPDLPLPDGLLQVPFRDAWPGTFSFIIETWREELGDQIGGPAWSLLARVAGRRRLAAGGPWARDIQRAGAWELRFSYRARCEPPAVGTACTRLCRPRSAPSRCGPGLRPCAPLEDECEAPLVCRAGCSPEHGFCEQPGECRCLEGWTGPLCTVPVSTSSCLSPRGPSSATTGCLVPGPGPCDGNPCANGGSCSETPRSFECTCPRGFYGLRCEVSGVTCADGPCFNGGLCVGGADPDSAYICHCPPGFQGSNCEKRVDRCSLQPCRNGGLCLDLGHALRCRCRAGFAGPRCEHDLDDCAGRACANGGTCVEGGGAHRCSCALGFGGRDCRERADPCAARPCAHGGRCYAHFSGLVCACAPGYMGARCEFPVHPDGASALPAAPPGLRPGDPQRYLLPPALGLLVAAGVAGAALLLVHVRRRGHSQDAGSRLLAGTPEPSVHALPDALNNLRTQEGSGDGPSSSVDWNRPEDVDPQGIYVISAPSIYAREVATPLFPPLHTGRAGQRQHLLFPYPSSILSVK

B1: hSC16.13 (antibody, human IgG1, kappa, V domains shown)
VH: QITLKESGPTLVKPTQTLTLTCTFSGFSLSTSGMGVGWIRQPPGKALEWLAHIWWDDVKRYSPSLKSRLTITKDTSKNQVVLTMTNMDPVDTATYYCARIVSFDNDVVSAMDYWGQGTLVTVSS
VL: DIQMTQSPSSLSASVGDRVTITCSASSSVSYMYWYQQKPGKAPKLLIYLTSNLASGVPSRFSGSGSGTDFTLTISSLQPEDFATYYCQQWRSNPFTFGQGTKLEIKR
B2: chimeric anti-DLL3 antibody SC16.56 (antibody, human IgG1, kappa, V domains shown)
VH: QIQLVQSGPELKKPGETVKISCKASGYTFTNYGMNWVKQAPGKGLKWMAWINTYTGEPTYADDFKGRFAFSLETSASTASLQIINLKNEDTATYFCARIGDSSPSDYWGQGTTLTVSS
VL: SIVMTQTPKFLLVSAGDRVTITCKASQSVSNDVVWYQQKPGQSPKLLIYYASNRYTGVPDRFAGSGYGTDFSFTISTVQAEDLAVYFCQQDYTSPWTFGGGTKLEIRR
B3: hSC16.15 (antibody, human IgG1, kappa, V domains shown)
VH: QVQLVQSGAEVKKPGASVKVSCKASGYTFTRYWIHWIRQAPGQGLEWMGYINPTTVYTEFNQNFKDRVTMTRDTSTSTVYMELSSLRSEDTAVYYCARGGSNFFDYWGQGTTVTVSS
VL: AIQLTQSPSSLSASVGDRVTITCRASENIYYNLAWYQQKPGKAPKLLIYTANSLEDGVPSRFSGSGSGTDFTLTISSLQPEDFATYFCKQAYDVPPTFGGGTKLEIKR
B4: hSC16.25 (antibody, human IgG1, kappa, V domains shown)
VH: QITLKESGPTLVKPTQTLTLTCTFSGFSLSTSGMGVGWIRQPPGKALEWLTDIWWDDNKYYNPSLKSRLTITKDTSKNQVVLTMTNMDPVDTATYYCARRVNYYYDPYYAMDYWGQGTLVTVSS
VL: EIVLTQSPDFQSVTPKEKVTITCSASSSVSYMHWYQQKPDQSPKLLIKDSSKLASGVPSRFSGSGSGTDFTLTINSLEAEDAATYYCQQWSSNPLTFGQGTKLEIKR
B5: SC16.31 (antibody, V domains shown)
VH: EVQLQQSGPELVKPGASVKISCKASGYSFSRFYMHWVKQSPENSLEWIGEINPSTGGTSYNQKFKGKATLTVDKSSSTAYMQLKSLTSEESAVYYCTRGYGSNWYFDVWGAGTTVTVST
VL: DIVLTQSPLSLPVNIGDQASISCKSTKSLLNSDGFTYLDWYLQRPGQSPQFLIYLVSNRFSGVPDRFSGSGSGTDFTLKISRVEAEDLGVYYCFQSNYLPLTFGAGTKLELR
B6: hSC16.34 (antibody, human IgG1, kappa, V domains shown)
VH: QVQLVQSGAEVKKPGASVKVSCKASGYTFTNYGMNWVRQAPGQRLEWMGWINTYTGDPTYADDFKGRVTITRDTSASTAYMELSSLRSEDTAVYYCARIGGNSPSDYWGQGTTVTVSS
VL: DIQMTQSPSSLSASVGDRVTITCKASQSVSNDVAWYQQKPGKVPKLLIYYASNRYSGVPSRFSGSGSGTDFTLTISSLQPEDVATYFCQQDYSSPWTFGGGTKVEIKR
B7: hSC16.56 (antibody, human IgG1, kappa, V domains shown)
VH: B6 VH with R44G, D57E, I70M, R72T, A76T, S84R, E89D, G101D, N102S, T113L
VL: EIVMTQSPATLSVSPGERATLSCKASQSVSNDVVWYQQKPGQAPRLLIYYASNRYTGIPARFSGSGSGTEFTLTISSLQSEDFAVYYCQQDYTSPWTFGQGTKLEIKR
B8: chimeric anti-DLL3 antibody SC16.15 (antibody, human IgG1, kappa, V domains shown)
VH: QVQLQQSGAELAKPGASVKMSCKASGYTFTRYWIHWIKQRPGQGLEWIGYINPTTVYTEFNQNFKDKATLTADKSSTTASMQLSSLTSEDSAVYYCARGGSNFFDYWGQGTTLTVSS
VL: DIQMTQSPASLAASVGETVAITCRASENIYYNLAWYQQKQGKSPQLLIYTANSLEDGVPSRFSGSGSGTQYSLKINSMQPEDSATYFCKQAYDVPPTFGGGTKLEIKR
B9: chimeric anti-DLL3 antibody SC16.25 (antibody, human IgG1, kappa, V domains shown)
VH: QVTLKESGPGILQPSQTLSLTCSFSGFSLSTSGMGVGWIRQPSGEGLEWLTDIWWDDNKYYNPSLKSRLTISKDTSSNQVFLNITSVDTADTATYYCARRVNYYYDPYYAMDYWGQGTSVTVSS
VL: QIVLTQSPAIMSASPGEKVTMTCSASSSVSYMHWYQQKSGTSPKRWIYDSSKLASGVPARFSGSGSGTSYSLTISSMEAEDAATYYCQQWSSNPLTFGAGTKLELKR
B10: chimeric anti-DLL3 antibody SC16.34 (antibody, human IgG1, kappa, V domains shown)
VH: B2 VH with K13R, A49G, E57D, S80Y, I84N, D101G, S102N, T113S
VL: B2 VL with V34A, T56S, A63T, S72T, T93S, R107K

What was measured:
[1] = target: DLL3 protein (surface plasmon resonance, Example 3) (Homo sapiens (Human)) (UniProt Q9NYJ7); assay: surface plasmon resonance
[2] = target: human DLL3 (immobilized human DLL3 or h293-hDLL3 cells) (human) (UniProt Q9NYJ7); assay: hybridoma screening on immobilized human DLL3 or on h293-hDLL3 cells

Binder	binding [1]	binding [2]
B1	binds	
B2	binds	
B3	binds	
B4	binds	
B5		binds
B6	binds	
B7	binds	
B8	binds	
B9	binds	
B10	binds	
